The subject of the experiment is P388 leukemia ip, CD2F1 mice, survival T/C. The experiment is described as follows: NCI In Vivo Anticancer Drug Screen. Data for tumor model P388 Leukemia (intraperitoneal) in CD2F1 (CDF1) mice. The settings on record: T/C endpoint: median survival time, higher T/C = longer survival.
Setting [1] is: dose: 200.0 mg/kg/injection, schedule: Q01DX009 (ip), vehicle: Klucel (hydroxypropylcellulose) (HPC).
The mark [2] stands for this setting: dose: 77.0 mg/kg/injection, schedule: Q01DX005 (ip), vehicle: saline.
[3] abbreviates: dose: 100.0 mg/kg/injection, schedule: Q01DX005 (ip), vehicle: saline with Tween-80.
Setting [4] is: dose: 200.0 mg/kg/injection, schedule: Q01DX005 (ip), vehicle: saline with Tween-80.

The list shows only some results of the screen, not a fair sample: it gathers tests that were run many times, whatever their T/C, doses with no T/C, and many T/C values between a quarter and a half above the control. Other doses and runs of a compound stand elsewhere. T/C: endpoint of the treated group in % of that of the vehicle group. Some entries give survivors of the animals treated and no T/C: the source files T/C as zero there, which appears to mark a toxic dose or a test without result, not a measured value. Some survivor counts are full or nearly so, which does not show that the dose was tolerated: the source hardly ever lists a survival T/C far under the control, and the zero likely stands for such cases as well. Survivors were counted at the toxicity check, usually on the fifth day, unless a day is given; later deaths do not show. Schedules are NCI's codes, taken here to give the interval after Q, in days (D) or hours (H), and the number of doses after X. Some molecules as drawn cover several salts, stereoisomers or complexes of the source; a dose is that of the sample tested. Marks such as (2×) give the number of equal values in this list. Some entries were tested several times; the results are listed from low to high. For survival time, this PubChem deposit counts one and a half times the control or more as active, and values a quarter to a half above the control carry no call in these data; other NCI protocols may use other cut-offs. Some T/C values carry the count of animals alive at the toxicity check (mostly the fifth day); where none is given, no animal had died by that day.

In the case of `CCC12C=CCN3CC[C@@]4(c5cc([C@@]6(C(=O)OC)C[C@@H]7CN(CCc8c6[nH]c6ccccc86)C[C@](O)(CC)C7)c(OC)cc5N(C)[C@H]4[C@@](O)(C(=O)OC)[C@@H]1OC(=O)CCCCCCCCCCCN1C(=O)C=CC1=O)[C@H]32` (stereo partly drawn), the T/C reads like this: (dose: 6.25 mg/kg/injection, schedule: Q01DX001 (ip), vehicle: saline) 134 % of control; (dose: 12.5 mg/kg/injection, schedule: Q01DX001 (ip), vehicle: other) 134 % of control; (dose: 12.5 mg/kg/injection, schedule: Q01DX001 (ip), vehicle: saline) 131 % of control. Also, the survivor count (dose: 50.0 mg/kg/injection, schedule: Q01DX001 (ip), vehicle: other) is given as 1 of 6; the survivor count (dose: 50.0 mg/kg/injection, schedule: Q01DX001 (ip), vehicle: saline with Tween-80) was 0 of 6; the survivor count (dose: 100.0 mg/kg/injection, schedule: Q01DX001 (ip), vehicle: saline with Tween-80) is recorded as 0 of 6.
In the case of `Cc1ccc2nc(N(C)C)[nH]c2c1`, the survivor count (dose: 200.0 mg/kg/injection, schedule: Q01DX005 (ip), vehicle: other) is reported as 0 of 6.
On to `C[C@]12CC[C@H](OC(=O)Cc3ccc(N(CCCl)CCCl)cc3)CC1CC[C@@H]1C2CC[C@]2(C)NC(=O)CCC12` (stereo partly drawn), for which the survivor count is 1 of 6 and 2 of 6 (dose: 200.0 mg/kg/injection, schedule: Q01DX001 (ip), vehicle: saline with Tween-80); 0 of 6 (dose: 400.0 mg/kg/injection, schedule: Q01DX001 (ip), vehicle: saline with Tween-80).
With `COc1ccccc1CC(N)c1nn[nH]n1` (stereo not drawn), under “dose: 400.0 mg/kg/injection, schedule: Q01DX009 (ip), vehicle: saline with Tween-80”, the survivor count was 3 of 6.
For `CN(C)c1ccc(SC(=S)NCc2ccccc2)cc1`, where the note is “dose: 240.0 mg/kg/injection, schedule: Q01DX005 (ip), vehicle: Klucel (hydroxypropylcellulose) (HPC)”, the survivor count is listed as 4 of 6.
For the molecule `COC1/C=C/OC2(C)Oc3c(C)c(O)c4c(c3C2=O)C(N)=C(NC2CC2)C(=NC(=O)/C(C)=C\C=C\C(C)C(O)C(C)C(O)C(C)C(OC(C)=O)C1C)C4=O` (stereo not drawn), the survivor count under setting [1] is 2 of 6.
With `CNC(=O)OCc1nc(SC)n(C)c1COC(=O)NC`, the T/C is 125 % of control [5 of 6 alive] (dose: 6.25 mg/kg/injection, schedule: Q01DX005 (ip), vehicle: saline); 144 and 147 % of control (dose: 12.5 mg/kg/injection, schedule: Q01DX005 (ip), vehicle: saline); 147 % of control (dose: 25.0 mg/kg/injection, schedule: Q01DX005 (ip), vehicle: saline); 170 and 186 % of control (dose: 40.0 mg/kg/injection, schedule: Q01DX005 (ip), vehicle: saline, evaluated on day 45); 166 % of control (dose: 40.0 mg/kg/injection, schedule: Q01DX005 (ip), vehicle: saline, evaluated on day 46); 169, 192, 217 % of control (dose: 40.0 mg/kg/injection, schedule: Q01DX005 (ip), vehicle: saline, evaluated on day 47). For the same molecule, the T/C (dose: 40.0 mg/kg/injection, schedule: Q01DX005 (ip), vehicle: saline, evaluated on day 48) is 172 % of control; the T/C (dose: 40.0 mg/kg/injection, schedule: Q01DX005 (ip), vehicle: saline, evaluated on day 60) is 197 % of control; the T/C (dose: 50.0 mg/kg/injection, schedule: Q01DX005 (ip), vehicle: saline, evaluated on day 45) is 175 and 202 % of control; the T/C (dose: 50.0 mg/kg/injection, schedule: Q01DX005 (ip), vehicle: saline, evaluated on day 46) was 191 % of control; the T/C (dose: 50.0 mg/kg/injection, schedule: Q01DX005 (ip), vehicle: saline, evaluated on day 47) is 182 [9 of 10 alive], 195, 221 % of control; the T/C (dose: 50.0 mg/kg/injection, schedule: Q01DX005 (ip), vehicle: saline, evaluated on day 48) is 187 % of control. The T/C (dose: 50.0 mg/kg/injection, schedule: Q01DX005 (ip), vehicle: saline, evaluated on day 60) was 203 % of control; the T/C (dose: 65.0 mg/kg/injection, schedule: Q01DX005 (ip), vehicle: saline, evaluated on day 45) was 193 and 217 % of control; the T/C (dose: 65.0 mg/kg/injection, schedule: Q01DX005 (ip), vehicle: saline, evaluated on day 46) is 200 % of control; the T/C (dose: 65.0 mg/kg/injection, schedule: Q01DX005 (ip), vehicle: saline, evaluated on day 47) is given as 198, 209, 221 % of control; the T/C (dose: 65.0 mg/kg/injection, schedule: Q01DX005 (ip), vehicle: saline, evaluated on day 48) was 181 % of control; the T/C (dose: 65.0 mg/kg/injection, schedule: Q01DX005 (ip), vehicle: saline, evaluated on day 60) is 231 % of control. For the same molecule, the T/C was 132 % of control under setting [2]; 126 and 205 % of control (dose: 80.0 mg/kg/injection, schedule: Q01DX005 (ip), vehicle: saline, evaluated on day 45); 161 % of control (dose: 80.0 mg/kg/injection, schedule: Q01DX005 (ip), vehicle: saline, evaluated on day 47); 213 % of control (dose: 80.0 mg/kg/injection, schedule: Q01DX005 (ip), vehicle: saline, evaluated on day 60). Moreover, the survivor count under setting [2] is 10 of 10; the survivor count (dose: 80.0 mg/kg/injection, schedule: Q01DX005 (ip), vehicle: saline) is 10 of 10 (3×); the survivor count (dose: 100.0 mg/kg/injection, schedule: Q01DX005 (ip), vehicle: saline) was 6 of 6; the survivor count (dose: 115.0 mg/kg/injection, schedule: Q01DX005 (ip), vehicle: saline) is 10 of 10 (3×); the survivor count (dose: 172.0 mg/kg/injection, schedule: Q01DX005 (ip), vehicle: saline) was 9 of 10.
Take `CC(=O)OCN(C)N=Nc1ccc(Br)cc1`: where the note is “dose: 144.0 mg/kg/injection, schedule: Q01DX005 (ip), vehicle: Klucel (hydroxypropylcellulose) (HPC)”, the survivor count is listed as 6 of 6.
In the case of `CCCCCCCCN(CCCCCCCC)C(=N)c1ccnc2ccccc12`, the survivor count reads like this: under setting [3], 0 of 5; under setting [4], 0 of 5.
For `CCN(CC)CCCC(c1ccccc1)c1ccccc1`, the survivor count under setting [3] is 0 of 5 and the survivor count under setting [4] is on record as 0 of 5.
Take `CN(C)CCCOC1=Nc2ccccc2O/C1=C/c1cccs1`: the survivor count runs as follows: (dose: 200.0 mg/kg/injection, schedule: Q04DX003 (ip), vehicle: saline) 0 of 6; (dose: 400.0 mg/kg/injection, schedule: Q04DX003 (ip), vehicle: saline) 0 of 6.
As to `C[C@]12CC[C@H](OC(=O)Cc3ccc(N(CCCl)CCCl)cc3)CC1=CC[C@@H]1[C@@H]2CC[C@]2(C)C(=O)CC[C@@H]12`, the T/C is 130 % of control (dose: 100.0 mg/kg/injection, schedule: Q04DX003 (ip), vehicle: saline with Tween-80); 140 % of control (dose: 256.0 mg/kg/injection, schedule: Q01DX009 (ip), vehicle: saline); 136 % of control (dose: 256.0 mg/kg/injection, schedule: Q03HX016 (ip), vehicle: saline); 136 % of control (dose: 512.0 mg/kg/injection, schedule: Q01DX009 (sc), vehicle: saline); 136 % of control (dose: 2048.0 mg/kg/injection, schedule: Q01DX001 (sc), vehicle: saline).
Take `Cc1[c-]onc1C.Cc1[c-]onc1C.[Ag].[Ag].[NH-]S(=O)(=O)c1ccc(N=Nc2cc(N=Nc3ccc(S([NH-])(=O)=O)cc3)c3c(NC(=O)C(Cl)Cl)cccc3c2OC(=O)C(Cl)Cl)cc1`: the survivor count by setting is: (dose: 12.5 mg/kg/injection, schedule: Q01DX009 (ip), vehicle: saline with Tween-80) 6 of 6; (dose: 100.0 mg/kg/injection, schedule: Q01DX009 (ip), vehicle: saline with Tween-80) 4 of 6; (dose: 200.0 mg/kg/injection, schedule: Q01DX009 (ip), vehicle: saline with Tween-80) 0 of 6.
Consider `CC(O)CC1(c2ccccc2)CNC(=O)NC1=O` (stereo not drawn), for which, for the setting “dose: 200.0 mg/kg/injection, schedule: Q01DX001 (ip), vehicle: Klucel (hydroxypropylcellulose) (HPC)”, the survivor count was 6 of 6.
For `CCC(=O)NC1=C(Cl)C(=O)C(NC(=O)CC)=C(Cl)C1=O`, the survivor count under setting [1] is reported as 0 of 6.
For `CCSC1C(=O)N(C)C(SCC)C(=O)N1C` (stereo not drawn), the survivor count is, setting by setting: (dose: 100.0 mg/kg/injection, schedule: Q01DX009 (ip), vehicle: saline) 5 of 6; (dose: 200.0 mg/kg/injection, schedule: Q01DX009 (ip), vehicle: saline) 6 of 6.
